These are literature values, as cited in patent EP0261362A2, “Ubidecarenone as a keloid remedy” (Eisai Co., Ltd., priority 1986, dated 1988).

For this series the following is noted: cited from earlier work.

With `COC1=C(OC)C(=O)C(C/C=C(\C)CC/C=C(\C)CC/C=C(\C)CC/C=C(\C)CC/C=C(\C)CC/C=C(\C)CC/C=C(\C)CC/C=C(\C)CC/C=C(\C)CCC=C(C)C)=C(C)C1=O` [ubidecarenone], the solubility in methanol entry (methanol) is “hardly soluble”. In addition, the solubility in water entry (water) was “hardly soluble”.
